In the supplement of paper PMC10849652:
This is one part of the list. Residues, ends and D or L forms follow the SMILES beside them. *: point of attachment. Cbz = O=C(OCc1ccccc1)*

Amino acid sequences for entries named in this document (tags omitted). A change or cut given only in a name is not applied to a line headed by its entry.
UniProt Q8N7R7: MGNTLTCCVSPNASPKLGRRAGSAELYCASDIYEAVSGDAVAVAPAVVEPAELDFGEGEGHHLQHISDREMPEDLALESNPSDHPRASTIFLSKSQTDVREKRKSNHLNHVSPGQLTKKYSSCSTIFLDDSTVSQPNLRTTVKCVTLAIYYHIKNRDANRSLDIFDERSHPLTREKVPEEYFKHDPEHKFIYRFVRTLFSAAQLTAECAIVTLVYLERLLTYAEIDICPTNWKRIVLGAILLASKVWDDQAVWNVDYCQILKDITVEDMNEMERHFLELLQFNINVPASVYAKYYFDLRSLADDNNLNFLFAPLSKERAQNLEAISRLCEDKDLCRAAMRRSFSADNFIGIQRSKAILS
UniProt P08174: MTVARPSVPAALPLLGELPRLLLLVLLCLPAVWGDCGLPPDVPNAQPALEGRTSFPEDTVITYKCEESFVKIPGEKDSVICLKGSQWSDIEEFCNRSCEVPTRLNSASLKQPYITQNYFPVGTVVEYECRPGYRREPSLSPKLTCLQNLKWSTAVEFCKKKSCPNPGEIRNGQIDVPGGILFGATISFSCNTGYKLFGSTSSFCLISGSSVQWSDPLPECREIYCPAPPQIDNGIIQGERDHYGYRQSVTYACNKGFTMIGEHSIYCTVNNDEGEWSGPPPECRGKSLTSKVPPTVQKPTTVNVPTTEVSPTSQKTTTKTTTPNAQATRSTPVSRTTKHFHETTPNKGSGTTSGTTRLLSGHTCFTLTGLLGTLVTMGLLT
UniProt Q12834, whole entry, looked up: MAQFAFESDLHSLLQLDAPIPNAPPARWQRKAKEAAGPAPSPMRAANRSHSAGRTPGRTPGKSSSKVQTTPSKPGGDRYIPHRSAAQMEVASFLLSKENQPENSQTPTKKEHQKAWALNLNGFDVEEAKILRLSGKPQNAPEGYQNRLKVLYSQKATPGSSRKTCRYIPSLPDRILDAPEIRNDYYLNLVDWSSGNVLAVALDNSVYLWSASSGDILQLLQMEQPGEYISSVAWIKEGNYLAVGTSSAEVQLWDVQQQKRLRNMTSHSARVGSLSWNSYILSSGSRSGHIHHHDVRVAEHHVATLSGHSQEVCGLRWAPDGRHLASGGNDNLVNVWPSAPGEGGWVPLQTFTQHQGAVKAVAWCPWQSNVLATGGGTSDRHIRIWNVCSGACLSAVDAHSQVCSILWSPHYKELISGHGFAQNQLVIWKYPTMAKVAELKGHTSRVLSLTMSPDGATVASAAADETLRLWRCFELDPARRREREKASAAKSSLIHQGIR
UniProt Q8NHZ8, whole entry, looked up: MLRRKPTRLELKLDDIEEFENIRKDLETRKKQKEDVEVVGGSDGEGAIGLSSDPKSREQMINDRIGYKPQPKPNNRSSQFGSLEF
UniProt Q9Y3X0: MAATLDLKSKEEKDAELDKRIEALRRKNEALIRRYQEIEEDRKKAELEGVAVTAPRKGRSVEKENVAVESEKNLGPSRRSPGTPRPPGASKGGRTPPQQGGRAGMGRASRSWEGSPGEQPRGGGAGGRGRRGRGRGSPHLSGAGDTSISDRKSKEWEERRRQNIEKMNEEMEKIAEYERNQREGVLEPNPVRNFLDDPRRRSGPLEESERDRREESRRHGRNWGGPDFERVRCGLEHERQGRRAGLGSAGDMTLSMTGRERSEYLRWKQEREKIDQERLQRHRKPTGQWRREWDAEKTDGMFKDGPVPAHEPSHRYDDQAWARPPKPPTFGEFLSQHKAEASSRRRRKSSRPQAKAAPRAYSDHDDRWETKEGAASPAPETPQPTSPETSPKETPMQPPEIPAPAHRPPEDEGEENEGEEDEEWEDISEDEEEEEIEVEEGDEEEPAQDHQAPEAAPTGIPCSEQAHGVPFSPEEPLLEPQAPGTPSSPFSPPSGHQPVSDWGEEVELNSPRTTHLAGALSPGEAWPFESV
UniProt O60563, whole entry, looked up: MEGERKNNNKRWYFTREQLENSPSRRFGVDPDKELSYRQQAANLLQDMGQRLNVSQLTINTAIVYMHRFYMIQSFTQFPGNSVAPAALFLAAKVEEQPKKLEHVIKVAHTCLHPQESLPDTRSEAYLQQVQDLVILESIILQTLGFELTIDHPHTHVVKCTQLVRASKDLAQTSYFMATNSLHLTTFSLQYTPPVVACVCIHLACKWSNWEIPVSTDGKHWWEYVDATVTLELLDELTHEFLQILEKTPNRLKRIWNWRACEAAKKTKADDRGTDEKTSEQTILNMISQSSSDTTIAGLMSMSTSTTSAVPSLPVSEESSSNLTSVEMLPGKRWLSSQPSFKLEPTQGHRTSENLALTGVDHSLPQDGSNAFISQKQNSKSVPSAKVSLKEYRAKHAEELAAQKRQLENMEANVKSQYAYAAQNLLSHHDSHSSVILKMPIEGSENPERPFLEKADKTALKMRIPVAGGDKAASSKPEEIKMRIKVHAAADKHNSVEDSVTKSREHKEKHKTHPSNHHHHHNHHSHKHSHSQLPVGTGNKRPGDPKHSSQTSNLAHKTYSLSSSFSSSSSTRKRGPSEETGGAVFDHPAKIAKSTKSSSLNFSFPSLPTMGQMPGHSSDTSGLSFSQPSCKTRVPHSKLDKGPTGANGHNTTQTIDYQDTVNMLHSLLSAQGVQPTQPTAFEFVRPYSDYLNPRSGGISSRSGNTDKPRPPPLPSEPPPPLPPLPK
UniProt P86791: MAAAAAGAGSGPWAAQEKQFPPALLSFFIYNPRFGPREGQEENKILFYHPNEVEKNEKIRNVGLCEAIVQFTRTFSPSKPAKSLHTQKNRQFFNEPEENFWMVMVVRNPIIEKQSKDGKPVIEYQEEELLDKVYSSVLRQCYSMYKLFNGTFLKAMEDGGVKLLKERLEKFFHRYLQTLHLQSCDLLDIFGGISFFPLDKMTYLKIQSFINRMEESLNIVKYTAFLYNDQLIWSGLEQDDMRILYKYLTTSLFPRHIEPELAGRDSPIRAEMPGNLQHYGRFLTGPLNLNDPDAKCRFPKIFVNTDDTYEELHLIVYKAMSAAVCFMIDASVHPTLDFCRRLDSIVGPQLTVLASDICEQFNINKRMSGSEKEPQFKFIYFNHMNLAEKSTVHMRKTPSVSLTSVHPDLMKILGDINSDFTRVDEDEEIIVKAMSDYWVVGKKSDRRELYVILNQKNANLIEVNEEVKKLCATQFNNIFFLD
UniProt P30304: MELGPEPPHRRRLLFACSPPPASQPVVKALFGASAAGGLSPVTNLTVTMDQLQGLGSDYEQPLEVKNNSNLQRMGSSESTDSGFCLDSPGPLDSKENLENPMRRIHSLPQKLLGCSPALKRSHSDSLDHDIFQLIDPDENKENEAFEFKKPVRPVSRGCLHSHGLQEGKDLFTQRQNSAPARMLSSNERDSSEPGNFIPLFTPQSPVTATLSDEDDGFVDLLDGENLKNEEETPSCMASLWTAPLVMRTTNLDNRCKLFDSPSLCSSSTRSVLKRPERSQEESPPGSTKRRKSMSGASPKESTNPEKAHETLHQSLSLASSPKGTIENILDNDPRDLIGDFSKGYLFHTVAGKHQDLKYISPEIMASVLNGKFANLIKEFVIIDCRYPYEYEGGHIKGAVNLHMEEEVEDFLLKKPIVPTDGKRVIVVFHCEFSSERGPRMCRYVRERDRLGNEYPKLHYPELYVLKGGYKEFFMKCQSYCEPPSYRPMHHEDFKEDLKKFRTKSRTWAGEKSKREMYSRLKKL
UniProt Q14790: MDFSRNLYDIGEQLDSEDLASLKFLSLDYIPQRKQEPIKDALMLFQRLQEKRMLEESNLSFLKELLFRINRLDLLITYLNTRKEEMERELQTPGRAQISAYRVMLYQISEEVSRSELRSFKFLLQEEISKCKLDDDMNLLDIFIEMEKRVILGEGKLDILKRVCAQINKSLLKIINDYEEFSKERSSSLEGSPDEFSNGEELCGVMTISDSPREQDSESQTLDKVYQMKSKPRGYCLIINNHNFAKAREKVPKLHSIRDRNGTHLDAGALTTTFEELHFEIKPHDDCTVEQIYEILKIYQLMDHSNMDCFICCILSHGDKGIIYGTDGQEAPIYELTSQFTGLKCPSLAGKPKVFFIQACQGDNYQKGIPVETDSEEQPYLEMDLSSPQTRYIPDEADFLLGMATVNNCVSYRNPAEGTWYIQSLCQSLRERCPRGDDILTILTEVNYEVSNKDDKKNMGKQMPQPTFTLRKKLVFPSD
UniProt Q9HC52: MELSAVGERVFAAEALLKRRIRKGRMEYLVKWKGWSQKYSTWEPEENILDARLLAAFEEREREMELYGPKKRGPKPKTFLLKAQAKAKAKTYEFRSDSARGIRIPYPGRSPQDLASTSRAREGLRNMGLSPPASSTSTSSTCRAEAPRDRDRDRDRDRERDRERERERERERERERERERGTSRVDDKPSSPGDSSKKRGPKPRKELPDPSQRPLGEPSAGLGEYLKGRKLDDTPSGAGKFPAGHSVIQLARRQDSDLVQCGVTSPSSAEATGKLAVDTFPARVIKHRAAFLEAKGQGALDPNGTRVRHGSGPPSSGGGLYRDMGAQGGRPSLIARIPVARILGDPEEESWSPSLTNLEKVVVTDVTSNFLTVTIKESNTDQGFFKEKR

How the values were obtained:
Experiment in all cases: log2 fold change, soluble protein after heating vs DMSO (PISA); higher = thermal stabilisation; K562 cells, 10 uM, 30 min; active = over 0.2 and 3.5 SD of the protein, either way, in both replicates (recomputed)
IRAK-1-4 Inhibitor I = compound: C1COCCN1CCN2C3=CC=CC=C3N=C2NC(=O)C4=CC(=CC=C4)[N+](=O)[O-] [IRAK-1-4 Inhibitor I]
Outline: (§1)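 K562 cells (2×10^6 cells/mL) were treated with 10 μM compound for 30 min, and aliquots were heated for 3 min over 48°C-58°C. Pooled aliquots were extracted in PBS with 0.5% NP-40 at 4°C, and the supernatant after 21,000xg for 90 min was measured by TMTpro 16plex LC-MS/MS with channel sums equalised. Reported thermal stability, relative to control samples and from duplicates, is a log2 fold change.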

ibrutinib = compound: C=CC(=O)N1CCC[C@@H](n2nc(-c3ccc(Oc4ccccc4)cc3)c3c(N)ncnc32)C1 [ibrutinib]
Outline: as §1

[1] = compound: CC(=O)c1cnc2ccc(-c3cc(Cl)c(O)c(Cl)c3)nc2c1N[C@H]1CC[C@H](CN(C)C)CC1
Outline: as §1

[2] = compound: CC(C)(O)CC(=O)NCCn1ccc2ncnc(Nc3ccc(Oc4cccc(C(F)(F)F)c4)c(Cl)c3)c21
Outline: as §1

[3] = compound: CC(C)C1=C2N=C(C=C(N2N=C1)NCC3=CC=CC=C3)NCCCCCCN
Outline: as §1

pinometostat = compound: CC(C)N(C[C@H]1O[C@@H](n2cnc3c(N)ncnc32)[C@H](O)[C@@H]1O)[C@H]1C[C@@H](CCc2nc3cc(C(C)(C)C)ccc3[nH]2)C1 [pinometostat]
Outline: as §1

[4] = compound: CC1=C(C(CC(=O)N1)C2=CC=C(C=C2)C(F)(F)F)C(=O)NC3=C(C=C4C(=C3)C=NN4)F
Outline: as §1

[5] = compound: CC1=C(C=C(C=C1)NC(=O)C2=CC(=CC=C2)C(C)(C)C#N)NC3=CC4=C(C=C3)N=CN(C4=O)C
Outline: as §1

[6] = compound: CC1=NC(=CC=C1)C2=C(N=C(N2)C(C)(C)C)C3=CC4=NC=CN=C4C=C3
Outline: as §1

Nexturastat A = compound: CCCCN(Cc1ccc(C(=O)NO)cc1)C(=O)Nc1ccccc1 [Nexturastat A]
Outline: as §1

[7] = compound: CCCc1cc(C)[nH]c(=O)c1CNC(=O)c1cc(-c2ccnc(N3CCN(C)CC3)c2)cc2c1cnn2C(C)C
Outline: as §1

givinostat = compound: CCN(CC)Cc1ccc2cc(COC(=O)Nc3ccc(C(=O)NO)cc3)ccc2c1 [givinostat]
Outline: as §1

barasertib = compound: CCN(CCCOc1ccc2c(Nc3cc(CC(=O)Nc4cccc(F)c4)[nH]n3)ncnc2c1)CCOP(=O)(O)O [barasertib]
Outline: as §1

ralimetinib = compound: CC(C)(C)Cn1c(N)nc2ccc(-c3[nH]c(C(C)(C)C)nc3-c3ccc(F)cc3)nc21 [ralimetinib]
Outline: as §1

[8] = compound: CC(C)C[C@@H](C=O)NC(=O)[C@H](CC(C)C)NC(=O)[C@H](CC(C)C)NC(=O)OCc1ccccc1
Outline: as §1

[9] = compound: CC1=C(C2=C(C=C1)C(=O)C3=CC=CC=C3N2CCCN)C
Outline: as §1

[10] = compound: CC1=C(C=C(C=C1)NC(=O)C2=CC(=CC=C2)N(C)C)NC(=O)C3=CC=C(C=C3)O
Outline: as §1

[11] = compound: CC1=CC=C(C=C1)SC2=C3C=C(SC3=CN=C2)C(=O)N
Outline: as §1

vemurafenib = compound: CCCS(=O)(=O)Nc1ccc(F)c(C(=O)c2c[nH]c3ncc(-c4ccc(Cl)cc4)cc23)c1F [vemurafenib]
Outline: as §1

[12] = compound: CCCS(=O)(=O)Nc1ccc(F)c(C(=O)c2c[nH]c3ncc(Cl)cc23)c1F
Outline: as §1

Target | log2 fold change (IRAK-1-4 Inhibitor I) | log2 fold change (ibrutinib) | log2 fold change [1] | log2 fold change [2] | log2 fold change [3] | log2 fold change (pinometostat) | log2 fold change [4] | log2 fold change [5] | log2 fold change [6] | log2 fold change (Nexturastat A) | log2 fold change [7] | log2 fold change (givinostat) | log2 fold change (barasertib) | log2 fold change (ralimetinib) | log2 fold change [8] | log2 fold change [9] | log2 fold change [10] | log2 fold change [11] | log2 fold change (vemurafenib) | log2 fold change [12]
CCNYL1 (UniProt Q8N7R7) | inactive: 0.051 | inactive: 0.261 | inactive: -0.129 | inactive: -0.001 | inactive: -0.077 | inactive: 0.033 | inactive: -0.02 | inactive: 0.056 | inactive: 0.111 | inactive: 0.119 | inactive: -0.004 | inactive: -0.007 | inactive: -0.03 |  |  |  |  |  |  | 
CD55 isoform 7 (UniProt P08174) | inactive: -0.043 | inactive: 0.071 | inactive: -0.008 | inactive: 0.037 | inactive: 0.155 | inactive: 0.019 |  | inactive: 0.037 | inactive: 0.049 | inactive: 0.072 | inactive: 0.088 | inactive: 0 | inactive: -0.057 | inactive: 0.016 | inactive: -0.012 | inactive: -0.054 | inactive: -0.006 | inactive: 0.021 | inactive: -0.031 | inactive: -0.053
CDC20 (UniProt Q12834) | inactive: -0.146 | inactive: -0.097 | inactive: -0.321 | inactive: 0.02 | inactive: -0.247 | inactive: 0 |  | inactive: 0.055 | inactive: -0.139 | inactive: -0.055 | inactive: 0.025 | inactive: 0.031 | inactive: -0.088 | inactive: 0.084 | inactive: 0.23 | inactive: -0.029 | inactive: -0.001 | inactive: 0.044 | inactive: 0.153 | inactive: 0.108
CDC37 (UniProt K7EL68) | inactive: 0.061 | inactive: 0.006 | inactive: -0.011 | inactive: 0 |  | inactive: -0.014 | inactive: -0.254 | inactive: -0.079 | inactive: 0.009 | inactive: -0.108 |  |  | inactive: 0.059 | inactive: -0.125 | inactive: -0.008 |  | inactive: -0.122 | inactive: 0.133 | inactive: -0.274 | inactive: 0.101
CDC26 (UniProt Q8NHZ8) | inactive: -0.014 | inactive: -0.003 | inactive: 0.099 | inactive: 0.007 | inactive: -0.01 | inactive: -0.128 |  | inactive: -0.026 | inactive: 0.021 | inactive: 0.067 | inactive: 0.056 | inactive: 0.056 | inactive: 0.007 | inactive: 0.188 | inactive: -0.04 | inactive: 0.049 | inactive: 0.029 | inactive: -0.025 | active: 0.534 | inactive: -0.048
CCDC9 (UniProt Q9Y3X0) | inactive: -0.05 | inactive: 0.078 | inactive: 0.173 | inactive: 0.053 | inactive: 0.105 | inactive: -0.024 |  | inactive: -0.042 | inactive: 0.055 | inactive: 0.119 | inactive: -0.004 | inactive: -0.069 | inactive: 0.021 | inactive: 0.031 | inactive: 0.087 | active: 0.296 | inactive: 0.007 | inactive: 0.019 | inactive: -0.007 | inactive: -0.009
CCNT1 (UniProt O60563) | inactive: -0.004 | inactive: 0.001 | active: -0.603 | inactive: 0.042 | active: -0.375 | inactive: 0.213 |  | inactive: -0.033 | inactive: 0.005 | inactive: 0.218 | inactive: 0.023 | inactive: 0.022 | inactive: 0.022 | inactive: 0.054 | inactive: 0.105 | inactive: -0.112 | inactive: -0.018 | inactive: -0.02 | inactive: 0.027 | inactive: 0.007
CCZ1 (UniProt P86791) | inactive: 0.063 | inactive: -0.001 | inactive: -0.039 | inactive: -0.05 | active: -0.287 | inactive: 0.012 |  | inactive: -0.005 | inactive: 0.035 | inactive: 0.009 | inactive: -0.029 | inactive: 0.028 | inactive: -0.011 | inactive: -0.051 | inactive: 0.025 | inactive: 0.006 | inactive: -0.029 | inactive: 0.014 | inactive: 0.024 | inactive: 0.011
CDC25A (UniProt P30304) | inactive: 0.034 | inactive: -0.002 |  | inactive: 0.035 | inactive: 0.066 | inactive: -0.003 | inactive: 0.027 | inactive: -0.03 | inactive: 0.075 | inactive: -0.071 | inactive: -0.037 | inactive: 0.051 | inactive: 0.028 |  |  |  |  |  |  | 
CASP8 isoform 9 (UniProt Q14790) | inactive: -0.056 | inactive: -0.027 | inactive: 0.098 | inactive: -0.092 | inactive: -0.264 | inactive: 0.124 |  | inactive: -0.054 | inactive: -0.049 | inactive: 0.064 | inactive: 0.114 | inactive: 0.115 | inactive: 0 | inactive: -0.058 | inactive: -0.025 | inactive: 0 | inactive: -0.092 | inactive: 0.017 | inactive: 0 | inactive: 0.177
CBX8 (UniProt Q9HC52) |  |  |  |  |  |  |  |  |  |  |  |  |  | inactive: -0.059 | inactive: 0.035 |  | inactive: 0.04 |  |  | 
